Experiment in all cases: affinity purification with mass spectrometry; FLAG-tagged bait transiently expressed in HEK293 suspension cells; NTEN lysis (150 mM NaCl, 0.5% NP40, pH 7.5); anti-Flag M2 agarose 3–4 h at 4 °C; eluted with 3XFlag peptide; SDS-PAGE and mass spectrometry
For assay [1], the target named is T1, FLAG-tagged C20ORF196 (human) (UniProt Q8IYI0).
T1 sequence: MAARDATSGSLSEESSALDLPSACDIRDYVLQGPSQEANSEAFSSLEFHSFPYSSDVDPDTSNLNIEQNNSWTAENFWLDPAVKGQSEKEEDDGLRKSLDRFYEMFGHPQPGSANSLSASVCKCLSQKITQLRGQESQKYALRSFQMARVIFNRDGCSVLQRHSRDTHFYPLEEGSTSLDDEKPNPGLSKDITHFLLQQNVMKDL

Protein sequences, listed by entry. Tags and fused reporters are not part of them.
UniProt Q9UI95: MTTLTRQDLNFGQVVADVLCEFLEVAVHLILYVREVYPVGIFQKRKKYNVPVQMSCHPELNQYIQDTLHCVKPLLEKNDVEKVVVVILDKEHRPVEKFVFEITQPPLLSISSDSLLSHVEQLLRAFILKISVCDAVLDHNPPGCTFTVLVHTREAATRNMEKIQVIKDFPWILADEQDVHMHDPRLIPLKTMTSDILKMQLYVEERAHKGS
UniProt P49005: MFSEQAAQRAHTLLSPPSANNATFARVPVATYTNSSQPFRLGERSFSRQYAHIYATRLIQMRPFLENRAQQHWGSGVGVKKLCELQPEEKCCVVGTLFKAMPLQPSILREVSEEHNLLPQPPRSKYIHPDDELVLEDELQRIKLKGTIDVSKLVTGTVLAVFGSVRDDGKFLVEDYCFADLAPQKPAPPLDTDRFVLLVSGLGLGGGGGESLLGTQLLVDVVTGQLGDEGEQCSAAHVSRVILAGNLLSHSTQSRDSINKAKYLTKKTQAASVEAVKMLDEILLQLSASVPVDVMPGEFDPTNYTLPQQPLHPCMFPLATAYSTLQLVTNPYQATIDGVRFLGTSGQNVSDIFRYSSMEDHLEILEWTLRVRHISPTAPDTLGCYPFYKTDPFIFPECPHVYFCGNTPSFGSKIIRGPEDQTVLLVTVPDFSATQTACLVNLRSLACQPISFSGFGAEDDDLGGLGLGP
UniProt O60673: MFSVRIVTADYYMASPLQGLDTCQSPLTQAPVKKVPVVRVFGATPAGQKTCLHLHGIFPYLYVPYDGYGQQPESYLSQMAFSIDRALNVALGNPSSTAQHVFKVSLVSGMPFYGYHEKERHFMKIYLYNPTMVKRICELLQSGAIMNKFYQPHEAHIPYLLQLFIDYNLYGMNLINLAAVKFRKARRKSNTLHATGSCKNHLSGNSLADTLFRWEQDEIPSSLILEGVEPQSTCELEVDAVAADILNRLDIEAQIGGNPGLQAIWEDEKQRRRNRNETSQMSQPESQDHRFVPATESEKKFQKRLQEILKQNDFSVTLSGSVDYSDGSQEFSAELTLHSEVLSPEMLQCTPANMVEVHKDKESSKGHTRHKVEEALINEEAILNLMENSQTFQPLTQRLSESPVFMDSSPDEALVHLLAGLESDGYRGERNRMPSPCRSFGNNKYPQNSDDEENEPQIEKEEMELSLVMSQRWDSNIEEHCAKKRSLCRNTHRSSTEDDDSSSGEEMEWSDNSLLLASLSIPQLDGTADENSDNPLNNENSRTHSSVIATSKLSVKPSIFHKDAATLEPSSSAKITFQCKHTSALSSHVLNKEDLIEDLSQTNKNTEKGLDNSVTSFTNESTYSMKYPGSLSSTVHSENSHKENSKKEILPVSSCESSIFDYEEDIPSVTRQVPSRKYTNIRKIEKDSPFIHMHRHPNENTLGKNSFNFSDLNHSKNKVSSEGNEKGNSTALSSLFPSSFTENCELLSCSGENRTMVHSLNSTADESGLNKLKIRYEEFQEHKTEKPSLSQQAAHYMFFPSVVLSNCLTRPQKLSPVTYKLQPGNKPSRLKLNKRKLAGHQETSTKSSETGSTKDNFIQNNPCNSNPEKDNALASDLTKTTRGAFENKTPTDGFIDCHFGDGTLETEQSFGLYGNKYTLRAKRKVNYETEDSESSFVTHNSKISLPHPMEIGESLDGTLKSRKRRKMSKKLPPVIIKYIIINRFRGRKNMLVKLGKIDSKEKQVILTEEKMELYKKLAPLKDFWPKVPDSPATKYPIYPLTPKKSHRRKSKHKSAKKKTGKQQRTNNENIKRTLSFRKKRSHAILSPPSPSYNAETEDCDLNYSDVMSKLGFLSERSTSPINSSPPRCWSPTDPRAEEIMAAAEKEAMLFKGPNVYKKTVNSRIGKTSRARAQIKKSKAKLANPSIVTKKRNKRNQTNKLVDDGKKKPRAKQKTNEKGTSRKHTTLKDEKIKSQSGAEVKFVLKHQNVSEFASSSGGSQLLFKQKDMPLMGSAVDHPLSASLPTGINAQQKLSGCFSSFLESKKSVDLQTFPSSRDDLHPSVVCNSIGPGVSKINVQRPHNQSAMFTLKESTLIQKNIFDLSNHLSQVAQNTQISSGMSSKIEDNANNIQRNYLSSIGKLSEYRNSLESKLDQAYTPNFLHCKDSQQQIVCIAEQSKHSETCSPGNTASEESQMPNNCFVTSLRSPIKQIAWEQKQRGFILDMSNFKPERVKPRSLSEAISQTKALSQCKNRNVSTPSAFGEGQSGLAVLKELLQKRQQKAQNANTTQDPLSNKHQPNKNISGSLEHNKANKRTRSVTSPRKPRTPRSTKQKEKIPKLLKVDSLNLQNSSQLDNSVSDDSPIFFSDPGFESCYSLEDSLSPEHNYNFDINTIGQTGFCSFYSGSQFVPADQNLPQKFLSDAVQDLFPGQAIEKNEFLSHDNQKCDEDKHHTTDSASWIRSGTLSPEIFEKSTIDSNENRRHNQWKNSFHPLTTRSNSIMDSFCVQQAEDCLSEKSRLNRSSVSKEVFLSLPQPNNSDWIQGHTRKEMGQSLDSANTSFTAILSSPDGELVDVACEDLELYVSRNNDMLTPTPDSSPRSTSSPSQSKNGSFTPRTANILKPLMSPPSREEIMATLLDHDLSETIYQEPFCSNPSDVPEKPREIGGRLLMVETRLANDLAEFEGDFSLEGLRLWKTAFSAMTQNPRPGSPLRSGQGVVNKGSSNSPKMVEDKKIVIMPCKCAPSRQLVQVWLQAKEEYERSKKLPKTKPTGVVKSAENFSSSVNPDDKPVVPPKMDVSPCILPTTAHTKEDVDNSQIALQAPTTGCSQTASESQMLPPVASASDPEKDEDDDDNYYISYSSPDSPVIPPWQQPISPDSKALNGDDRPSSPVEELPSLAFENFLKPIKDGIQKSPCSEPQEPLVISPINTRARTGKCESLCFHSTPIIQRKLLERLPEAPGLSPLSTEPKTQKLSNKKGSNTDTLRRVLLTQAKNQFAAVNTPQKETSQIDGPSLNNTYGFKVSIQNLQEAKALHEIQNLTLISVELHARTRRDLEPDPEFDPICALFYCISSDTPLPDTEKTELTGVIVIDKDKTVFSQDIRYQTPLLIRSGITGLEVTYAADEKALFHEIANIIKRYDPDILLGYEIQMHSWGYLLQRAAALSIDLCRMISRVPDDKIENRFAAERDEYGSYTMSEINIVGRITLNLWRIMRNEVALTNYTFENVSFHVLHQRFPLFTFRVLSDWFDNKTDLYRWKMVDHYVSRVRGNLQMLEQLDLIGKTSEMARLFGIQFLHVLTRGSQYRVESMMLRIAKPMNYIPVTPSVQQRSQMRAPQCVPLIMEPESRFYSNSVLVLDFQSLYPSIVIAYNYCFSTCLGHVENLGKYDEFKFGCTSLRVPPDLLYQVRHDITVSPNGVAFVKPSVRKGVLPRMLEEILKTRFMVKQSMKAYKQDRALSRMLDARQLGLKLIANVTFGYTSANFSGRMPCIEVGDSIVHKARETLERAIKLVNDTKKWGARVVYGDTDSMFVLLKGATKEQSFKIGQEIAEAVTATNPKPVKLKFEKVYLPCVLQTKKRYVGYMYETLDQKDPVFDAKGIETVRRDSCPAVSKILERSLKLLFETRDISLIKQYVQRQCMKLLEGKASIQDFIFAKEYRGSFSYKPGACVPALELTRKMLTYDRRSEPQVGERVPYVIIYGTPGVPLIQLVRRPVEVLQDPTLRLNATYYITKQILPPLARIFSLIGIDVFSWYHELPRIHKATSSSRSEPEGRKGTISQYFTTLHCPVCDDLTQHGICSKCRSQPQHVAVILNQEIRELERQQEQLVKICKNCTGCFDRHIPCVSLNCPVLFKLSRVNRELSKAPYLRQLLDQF
UniProt Q5UIP0: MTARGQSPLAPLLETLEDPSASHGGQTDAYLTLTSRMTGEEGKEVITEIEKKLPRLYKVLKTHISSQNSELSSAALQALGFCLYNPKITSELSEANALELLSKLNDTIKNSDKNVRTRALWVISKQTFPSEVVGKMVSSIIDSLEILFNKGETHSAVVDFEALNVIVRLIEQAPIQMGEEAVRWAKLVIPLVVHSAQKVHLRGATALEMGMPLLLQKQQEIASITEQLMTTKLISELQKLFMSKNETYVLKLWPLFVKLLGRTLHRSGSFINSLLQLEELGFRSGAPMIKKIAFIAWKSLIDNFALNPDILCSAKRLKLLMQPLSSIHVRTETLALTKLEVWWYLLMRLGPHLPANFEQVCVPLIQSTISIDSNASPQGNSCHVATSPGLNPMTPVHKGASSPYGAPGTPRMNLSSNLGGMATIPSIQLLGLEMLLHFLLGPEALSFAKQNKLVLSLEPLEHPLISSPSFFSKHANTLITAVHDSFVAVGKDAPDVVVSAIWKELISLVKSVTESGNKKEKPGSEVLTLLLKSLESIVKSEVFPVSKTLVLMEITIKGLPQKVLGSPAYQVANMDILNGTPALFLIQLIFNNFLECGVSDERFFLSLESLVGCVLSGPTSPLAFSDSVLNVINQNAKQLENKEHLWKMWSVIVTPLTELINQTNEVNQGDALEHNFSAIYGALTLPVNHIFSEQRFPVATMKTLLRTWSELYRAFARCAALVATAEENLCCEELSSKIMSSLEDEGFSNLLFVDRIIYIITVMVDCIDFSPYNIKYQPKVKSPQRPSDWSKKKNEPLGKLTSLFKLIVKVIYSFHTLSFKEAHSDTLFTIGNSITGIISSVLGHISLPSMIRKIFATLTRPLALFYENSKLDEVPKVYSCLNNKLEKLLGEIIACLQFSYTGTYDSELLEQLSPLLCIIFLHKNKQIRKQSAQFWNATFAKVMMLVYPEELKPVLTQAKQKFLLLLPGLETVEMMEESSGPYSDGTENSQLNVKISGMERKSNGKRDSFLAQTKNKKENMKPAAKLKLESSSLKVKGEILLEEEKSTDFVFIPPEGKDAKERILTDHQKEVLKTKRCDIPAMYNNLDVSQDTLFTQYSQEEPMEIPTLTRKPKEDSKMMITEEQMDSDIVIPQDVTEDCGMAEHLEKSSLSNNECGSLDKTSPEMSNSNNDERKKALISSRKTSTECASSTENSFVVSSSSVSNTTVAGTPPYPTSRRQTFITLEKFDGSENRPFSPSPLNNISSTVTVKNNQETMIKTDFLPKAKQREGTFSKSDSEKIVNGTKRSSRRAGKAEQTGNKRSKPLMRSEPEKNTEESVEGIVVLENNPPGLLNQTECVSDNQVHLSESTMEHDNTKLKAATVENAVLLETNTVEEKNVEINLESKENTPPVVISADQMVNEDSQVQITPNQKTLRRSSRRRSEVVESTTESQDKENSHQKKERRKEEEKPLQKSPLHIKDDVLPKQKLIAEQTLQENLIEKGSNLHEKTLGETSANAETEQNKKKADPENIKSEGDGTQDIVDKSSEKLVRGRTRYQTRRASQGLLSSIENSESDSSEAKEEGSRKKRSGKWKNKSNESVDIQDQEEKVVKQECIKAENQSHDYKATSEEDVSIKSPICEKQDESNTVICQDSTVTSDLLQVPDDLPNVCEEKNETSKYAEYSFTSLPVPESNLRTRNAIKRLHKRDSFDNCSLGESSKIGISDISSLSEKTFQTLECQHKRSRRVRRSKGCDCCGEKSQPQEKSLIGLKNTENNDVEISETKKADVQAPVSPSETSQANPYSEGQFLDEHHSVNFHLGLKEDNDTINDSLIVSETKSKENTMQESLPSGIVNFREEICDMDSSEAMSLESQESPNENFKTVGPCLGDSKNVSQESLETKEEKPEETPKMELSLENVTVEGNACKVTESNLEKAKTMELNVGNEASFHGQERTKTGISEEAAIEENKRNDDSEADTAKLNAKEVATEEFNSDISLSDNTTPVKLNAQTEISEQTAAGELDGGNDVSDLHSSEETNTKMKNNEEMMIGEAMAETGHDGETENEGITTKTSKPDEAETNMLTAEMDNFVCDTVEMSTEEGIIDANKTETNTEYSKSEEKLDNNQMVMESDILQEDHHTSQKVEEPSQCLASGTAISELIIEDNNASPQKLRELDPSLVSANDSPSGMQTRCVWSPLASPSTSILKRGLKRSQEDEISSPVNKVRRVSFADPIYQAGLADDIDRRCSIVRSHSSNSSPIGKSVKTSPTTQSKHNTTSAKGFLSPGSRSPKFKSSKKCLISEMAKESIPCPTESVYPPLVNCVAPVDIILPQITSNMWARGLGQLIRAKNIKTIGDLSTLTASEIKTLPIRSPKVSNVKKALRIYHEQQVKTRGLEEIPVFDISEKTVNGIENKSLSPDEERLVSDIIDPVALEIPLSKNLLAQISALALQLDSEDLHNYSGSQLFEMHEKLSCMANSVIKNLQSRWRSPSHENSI

For assay [2], the target named is FLAG-REV7 (human) (UniProt Q9UI95).
Assay [3] has as its target T2, FLAG-tagged FAM35A (human) (UniProt Q86V20).
T2 sequence: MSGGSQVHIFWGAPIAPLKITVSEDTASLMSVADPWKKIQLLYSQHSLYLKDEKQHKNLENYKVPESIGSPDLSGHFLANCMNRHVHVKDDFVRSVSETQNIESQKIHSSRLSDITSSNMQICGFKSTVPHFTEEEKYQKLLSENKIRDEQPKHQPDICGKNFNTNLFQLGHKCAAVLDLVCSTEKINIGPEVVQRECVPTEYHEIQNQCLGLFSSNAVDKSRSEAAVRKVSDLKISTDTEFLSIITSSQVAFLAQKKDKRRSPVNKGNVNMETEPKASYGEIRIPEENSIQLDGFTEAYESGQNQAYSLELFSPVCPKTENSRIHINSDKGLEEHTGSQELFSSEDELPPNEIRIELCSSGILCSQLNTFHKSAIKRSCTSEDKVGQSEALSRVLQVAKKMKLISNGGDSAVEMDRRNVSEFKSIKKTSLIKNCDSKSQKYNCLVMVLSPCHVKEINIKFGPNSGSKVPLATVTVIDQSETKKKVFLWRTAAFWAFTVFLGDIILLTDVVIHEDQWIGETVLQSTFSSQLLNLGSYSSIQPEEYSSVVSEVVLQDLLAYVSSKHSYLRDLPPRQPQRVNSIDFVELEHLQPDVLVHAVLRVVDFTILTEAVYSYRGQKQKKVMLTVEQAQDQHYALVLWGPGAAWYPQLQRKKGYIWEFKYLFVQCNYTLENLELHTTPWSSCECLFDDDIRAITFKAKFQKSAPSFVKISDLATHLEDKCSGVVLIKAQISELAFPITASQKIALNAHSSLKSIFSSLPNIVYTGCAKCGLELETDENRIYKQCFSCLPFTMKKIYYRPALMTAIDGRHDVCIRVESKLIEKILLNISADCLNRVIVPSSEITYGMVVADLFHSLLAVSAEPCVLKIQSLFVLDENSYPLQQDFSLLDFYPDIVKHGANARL

Assay [4] deals with T1, FLAG-tagged C20ORF196 (human). This is another data set of the same source.
The target in assay [5] is FLAG-REV7 (human) (UniProt Q9UI95). This is another data set of the same source.
Assay [6] has as its target T2, FLAG-tagged FAM35A (human). The source holds these as a separate data set.

Where two headings read alike, the source gives them in different places. No constants are given. Whether binding was seen depends on the method and setting. In cells and extracts the contact can be indirect. Here binding means that the protein was enriched with, or labelled near, the bait; the list need not be complete. For part of these data: A no says only that the protein was not detected with the bait. For part of these data: Where a sequence is shown, tags or fusion partners need not be part of it.

Consider POLD2 (from UniProt P49005 1-469), for which the binding entry in assay [1] was “no binding”; in assay [2], “binds”; in assay [3], “no binding”.
As to REV3L (from UniProt O60673 1-3130), the binding result in assay [1] is recorded as “no binding”; in assay [2] it was “binds”; in assay [3], “no binding”.
REV7 (from UniProt Q9UI95 1-211): the binding result in assay [1] and in assay [3] was “binds” in each case.
For RIF1 (from UniProt Q5UIP0 1-2472), the binding result in assay [1], in assay [2] and in assay [3] was “binds” throughout.

B1: POLD3 (protein, UniProt Q15054 1-466)
chain: MADQLYLENIDEFVTDQNKIVTYKWLSYTLGVHVNQAKQMLYDYVERKRKENSGAQLHVTYLVSGSLIQNGHSCHKVAVVREDKLEAVKSKLAVTASIHVYSIQKAMLKDSGPLFNTDYDILKSNLQNCSKFSAIQCAAAVPRAPAESSSSSKKFEQSHLHMSSETQANNELTTNGHGPPASKQVSQQPKGIMGMFASKAAAKTQETNKETKTEAKEVTNASAAGNKAPGKGNMMSNFFGKAAMNKFKVNLDSEQAVKEEKIVEQPTVSVTEPKLATPAGLKKSSKKAEPVKVLQKEKKRGKRVALSDDETKETENMRKKRRRIKLPESDSSEDEVFPDSPGAYEAESPSPPPPPSPPLEPVPKTEPEPPSVKSSSGENKRKRKRVLKSKTYLDGEGCIVTEKVYESESCTDSEEELNMKTSSVHRPPAMTVKKEPREERKGPKKGTAALGKANRQVSITGFFQRK
Consider B1, for which the binding result in assay [4] is given as “no binding”; in assay [5], “binds”; in assay [6], “no binding”.

B2: FAM35A (protein, UniProt Q86V20-2 1-904)
chain: MSGGSQVHIFWGAPIAPLKITVSEDTASLMSVADPWKKIQLLYSQHSLYLKDEKQHKNLENYKVPESIGSPDLSGHFLANCMNRHVHVKDDFVRSVSETQNIESQKIHSSRLSDITSSNMQICGFKSTVPHFTEEEKYQKLLSENKIRDEQPKHQPDICGKNFNTNLFQLGHKCAAVLDLVCSTEKINIGPEVVQRECVPTEYHEIQNQCLGLFSSNAVDKSRSEAAVRKVSDLKISTDTEFLSIITSSQVAFLAQKKDKRRSPVNKGNVNMETEPKASYGEIRIPEENSIQLDGFTEAYESGQNQAYSLELFSPVCPKTENSRIHINSDKGLEEHTGSQELFSSEDELPPNEIRIELCSSGILCSQLNTFHKSAIKRSCTSEDKVGQSEALSRVLQVAKKMKLISNGGDSAVEMDRRNVSEFKSIKKTSLIKNCDSKSQKYNCLVMVLSPCHVKEINIKFGPNSGSKVPLATVTVIDQSETKKKVFLWRTAAFWAFTVFLGDIILLTDVVIHEDQWIGETVLQSTFSSQLLNLGSYSSIQPEEYSSVVSEVVLQDLLAYVSSKHSYLRDLPPRQPQRVNSIDFVELEHLQPDVLVHAVLRVVDFTILTEAVYSYRGQKQKKVMLTVEQAQDQHYALVLWGPGAAWYPQLQRKKGYIWEFKYLFVQCNYTLENLELHTTPWSSCECLFDDDIRAITFKAKFQKSAPSFVKISDLATHLEDKCSGVVLIKAQISELAFPITASQKIALNAHSSLKSIFSSLPNIVYTGCAKCGLELETDENRIYKQCFSCLPFTMKKIYYRPALMTAIDGRHDVCIRVESKLIEKILLNISADCLNRVIVPSSEITYGMVVADLFHSLLAVSAEPCVLKIQSLFVLDENSYPLQQDFSLLDFYPDIVKHGANARL
For the molecule B2, the binding result in assay [4] and in assay [5] was “binds” in each case.

B3: C20ORF196 (protein, UniProt Q8IYI0 1-205)
chain: MAARDATSGSLSEESSALDLPSACDIRDYVLQGPSQEANSEAFSSLEFHSFPYSSDVDPDTSNLNIEQNNSWTAENFWLDPAVKGQSEKEEDDGLRKSLDRFYEMFGHPQPGSANSLSASVCKCLSQKITQLRGQESQKYALRSFQMARVIFNRDGCSVLQRHSRDTHFYPLEEGSTSLDDEKPNPGLSKDITHFLLQQNVMKDL
For the molecule B3, the binding result in assay [5] and in assay [6] was “binds” in each case.

(Values after PMC6156606.)
